Results taken from paper PMC7290415, “Functional Consequences of the Variable Stoichiometry of the Kv1.3-KCNE4 Complex” (Cells, 2020).
No constants are given. Whether binding was seen depends on the method and setting. In cells and extracts the contact can be indirect. Some binding calls cover weakened binding; strength is not graded here. Sequences can lack the tags named with a protein.

Protein sequences, listed by entry. Tags and fused reporters are not part of them.
UniProt P15384: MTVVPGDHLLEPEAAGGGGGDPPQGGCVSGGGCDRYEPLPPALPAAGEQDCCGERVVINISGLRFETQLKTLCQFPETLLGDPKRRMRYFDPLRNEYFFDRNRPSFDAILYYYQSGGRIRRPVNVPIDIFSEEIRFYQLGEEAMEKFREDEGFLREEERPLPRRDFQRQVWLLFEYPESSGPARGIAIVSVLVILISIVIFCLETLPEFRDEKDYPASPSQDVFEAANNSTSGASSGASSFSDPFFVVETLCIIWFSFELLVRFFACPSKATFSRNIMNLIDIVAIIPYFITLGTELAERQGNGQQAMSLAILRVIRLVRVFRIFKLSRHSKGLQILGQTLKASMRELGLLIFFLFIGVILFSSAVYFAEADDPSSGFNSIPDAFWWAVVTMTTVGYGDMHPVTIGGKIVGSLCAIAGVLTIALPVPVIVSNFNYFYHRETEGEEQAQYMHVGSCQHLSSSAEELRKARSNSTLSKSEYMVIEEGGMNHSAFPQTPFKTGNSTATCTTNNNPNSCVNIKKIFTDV

Columns and labels:
KCNE4-CFP = biological target: T1, KCNE4-CFP (UniProt Q9WTW3); assay: co-IP; HEK-293 cells cotransfected; lysate in 150 mM NaCl, 50 mM HEPES, 1% Triton X-100, pH 7.4; KCNE-CFP precipitated with anti-GFP antibody cross-linked to protein A-Sepharose, 2-3 h at room temperature; blotted against Kv1.3 (anti-Kv1.3) and KCNE (anti-GFP)
T1 sequence: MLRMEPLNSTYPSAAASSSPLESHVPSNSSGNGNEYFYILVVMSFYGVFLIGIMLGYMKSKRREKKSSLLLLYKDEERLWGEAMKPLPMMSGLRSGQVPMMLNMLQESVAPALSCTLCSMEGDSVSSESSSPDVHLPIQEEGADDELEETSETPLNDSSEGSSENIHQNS

[1] = biological target: T2, hKCNE2-HA introduced into pECFP-N1 (human) (UniProt Q9Y6J6); assay: as above
T2 sequence: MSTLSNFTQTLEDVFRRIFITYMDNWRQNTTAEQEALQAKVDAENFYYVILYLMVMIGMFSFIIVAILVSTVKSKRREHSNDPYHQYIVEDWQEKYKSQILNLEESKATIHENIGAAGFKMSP

rKv1.3, externally tagged with HA between S3 and S4 (from UniProt P15384 1-525)
binding (KCNE4-CFP): binds
binding [1]: no binding
